The values are deposited in ChEMBL (CHEMBL3988442, “University of Dundee, Small-Polar-MMV Screening Library” (2021)).

Amino acid sequences for entries named in this document (tags omitted). Residues count along the entry.
UniProt Q4DA54, 1-478: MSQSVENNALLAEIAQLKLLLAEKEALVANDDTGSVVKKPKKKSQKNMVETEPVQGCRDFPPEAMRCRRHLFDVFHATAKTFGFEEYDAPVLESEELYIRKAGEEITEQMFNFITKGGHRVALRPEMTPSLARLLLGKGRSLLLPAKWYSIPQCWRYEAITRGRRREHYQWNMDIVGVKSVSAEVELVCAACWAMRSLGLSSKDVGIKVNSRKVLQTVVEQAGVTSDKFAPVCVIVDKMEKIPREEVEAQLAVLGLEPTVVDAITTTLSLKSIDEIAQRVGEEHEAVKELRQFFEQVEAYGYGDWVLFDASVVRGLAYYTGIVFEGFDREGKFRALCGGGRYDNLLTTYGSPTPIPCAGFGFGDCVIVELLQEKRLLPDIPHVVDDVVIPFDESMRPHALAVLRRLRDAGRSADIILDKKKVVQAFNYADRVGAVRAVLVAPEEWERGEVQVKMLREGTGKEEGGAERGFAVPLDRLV
UniProt P9WNZ1, whole entry: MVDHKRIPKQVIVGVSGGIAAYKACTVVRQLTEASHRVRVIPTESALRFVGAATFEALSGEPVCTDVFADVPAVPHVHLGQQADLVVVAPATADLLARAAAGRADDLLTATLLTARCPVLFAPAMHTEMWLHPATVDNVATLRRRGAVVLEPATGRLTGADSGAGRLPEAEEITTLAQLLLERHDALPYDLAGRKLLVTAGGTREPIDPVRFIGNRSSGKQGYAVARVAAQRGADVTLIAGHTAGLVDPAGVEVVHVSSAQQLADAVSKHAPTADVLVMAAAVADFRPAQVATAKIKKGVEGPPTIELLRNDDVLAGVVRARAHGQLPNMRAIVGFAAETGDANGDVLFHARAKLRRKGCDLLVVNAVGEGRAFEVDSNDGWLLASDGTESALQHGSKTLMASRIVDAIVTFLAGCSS
UniProt A4I591, 1-473: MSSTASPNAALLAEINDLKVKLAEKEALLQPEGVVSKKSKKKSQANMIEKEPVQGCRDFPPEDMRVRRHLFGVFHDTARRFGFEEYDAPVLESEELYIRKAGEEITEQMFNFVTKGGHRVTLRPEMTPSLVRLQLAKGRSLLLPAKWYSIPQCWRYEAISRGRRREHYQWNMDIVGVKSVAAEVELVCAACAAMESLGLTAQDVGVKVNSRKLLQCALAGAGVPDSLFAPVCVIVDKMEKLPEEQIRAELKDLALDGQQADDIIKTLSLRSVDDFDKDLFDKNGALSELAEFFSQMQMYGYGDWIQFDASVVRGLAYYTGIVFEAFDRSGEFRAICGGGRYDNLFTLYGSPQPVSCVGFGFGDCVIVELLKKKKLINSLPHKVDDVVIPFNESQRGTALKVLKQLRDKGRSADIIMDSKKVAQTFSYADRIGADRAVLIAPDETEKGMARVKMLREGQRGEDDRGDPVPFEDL

A: 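Enzyme assay of histidyl-tRNA synthetase; the read-out is not stated. Target: Histidine-tRNA ligase, Trypanosoma cruzi CL Brener (UniProt Q4DA54). Concentration: 30 µM. The record gives no direction; compounds that gave an IC50 in retests scored well above the rest, so higher reads as stronger inhibition. Size under these conditions: about 69,000 compounds, about 31 of them at 50% or above in at least one test.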
B: 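Cell assay of Leishmania donovani living inside macrophages; the read-out is not stated. Compounds at 30 µM. Higher reads as stronger inhibition (inferred: compounds with an IC50 in retests scored well above the rest). Size under these conditions: about 69,000 compounds, about 1,000 of them at 50% or above in at least one test.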
C: 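Assay of Toxoplasma gondii numbers, read through their beta-galactosidase reporter with a colour substrate. Concentration: 10 µM. The record gives no direction; the compounds picked for IC50 retests had high values, so higher reads as fewer parasites. Size under these conditions: about 67,000 compounds, about 260 of them at 50% or above in at least one test.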
D: 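Enzyme assay of CoaBC with a phosphate dye (Biomol Green) read at 650 nm. Target: Coenzyme A biosynthesis protein CoaBC, Mycobacterium tuberculosis (UniProt P9WNZ1). Tested at 30 µM. Higher reads as stronger inhibition, judged from the few compounds that gave an IC50. Most strong results did not repeat in a second test. About 67,000 compounds were tested under these conditions; 0.06% (about 40) showed 50% or more at least once.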
E: 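Enzyme assay of histidyl-tRNA synthetase; the read-out is not stated. Target: Histidine-tRNA ligase, Leishmania infantum (UniProt A4I591). Concentration: 30 µM. The record gives no direction; compounds that gave an IC50 in retests scored well above the rest, so higher reads as stronger inhibition. The assay is labelled LdHisRS but filed under L. infantum. Size under these conditions: about 69,000 compounds, about 410 of them at 50% or above in at least one test.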

Values are the deposited “Percent Effect”, in %.
The record does not define 0% and 100%; most values in the screen are far below 50% and negative numbers occur (in some assays of this library far below -100).
This is an unselected part of the compounds tested.
Two or more numbers in one place are separate tests of the same structure; such repeats can differ widely.
A dash means the value is not listed here; it may have been measured.

| # | Compound | A | B | C | D | E |
|---|---|---|---|---|---|---|
| 1 | `CCN1CCN(c2ncc3c(n2)CN(c2cnn(CC)c2)C3=O)CC1` | 4.348 | -100.9 | 5.32 | 7.621 | 15.52 |
| 2 | `CS(=O)(=O)NCCCN1CCCC1c1ccccc1` (configuration not stated) | 4.511 | 32.91 | - | 1.028 | 12.36 |
| 3 | `Cc1cccc2nc(CN3CCCC(C)C3)cc(=O)n12` (configuration not stated) | 15.69 | 5.499 | 0.3386 | 4.466 | 5 |
| 4 | `O=C(CCc1ccncc1)N1CCc2cc(Cl)cc(Cl)c2C1` | -0.4484 | 33.89 | 27.67 | 7.868 | 27.06 |
| 5 | `N#Cc1cccnc1NCCc1cc(F)cc2c1OCOC2` | 3.571 | 14.29 | 31.92 | 3.648 | 5.31 |
| 6 | `O=C(Nc1cccc(F)c1)C1CCN(Cc2noc(C3CC3)n2)CC1` | 3.448 | 33.46 | -1.299 | 8.544 | 22.08 |
| 7 | `CC(=O)Nc1cccc(C(=O)N2CCc3c(nc(N(C)C)[nH]c3=O)C2)c1` | -1.685 | -11.1 | -9.793 | 1.408 | 33.33 |
| 8 | `COc1ccc(/C=C/CN2CCN(c3ncccc3C(N)=O)CC2)cc1` | 6.627 | -1.804 | -1.746 | 8.902 | 26.37 |
| 9 | `CCC(=O)N1CCC2(C=C(C(=O)N3CCCC3)c3ccccc32)CC1` | 4.42 | 11.1 | 20.49 | -3.713 | 2.703 |
| 10 | `CCn1ccnc1CN1CCCN(C(=O)COC2CCCCC2)CC1` | 4.507 | 32.29 | -10.17 | 7.761 | 18.26 |
| 11 | `Cc1cccnc1NCCNC(=O)[C@H]1CNC[C@@H](C(=O)N2CCCC2)C1` | -2.479 | 5.683 | 16.64 | -13.12 | 1.905 |
| 12 | `CNC(=O)[C@@H]1C[C@H](n2cc(-c3ccc(CN4CC=CC4)cc3)nn2)CN1` | 3.483 | 5.499 | -13.96 | 10.86 | 8.392 |
| 13 | `CC(C)C(=O)N1CCC2(CC1)NC(=O)[C@H]1CN(Cc3cccnc3)C[C@H]12` | 4.854 | - | - | -0.7634 | 13.59 |
| 14 | `CC(CN1CCCC1=O)NC(=O)Nc1cccnc1-n1cccn1` (configuration not stated) | 1.042 | -2.319 | 9.595 | -1.381 | 18.75 |
| 15 | `CCS(=O)(=O)c1ccc(N2CCC(NC(=O)c3ccccn3)CC2)cc1` | 4.082 | 3.481 | 3.303 | -3.121 | -39.67 |
| 16 | `COC1CCCN(Cc2cc(O)c3cc(C)cc(C)c3n2)C1` (configuration not stated) | 1.02 | 3.372 | -7.571 | 5.952 | 11.11 |
| 17 | `CCS(=O)(=O)CC(=O)NC(C)c1ccc(F)cc1F` (configuration not stated) | 6.349 | -42.02 | -5.963 | 4.752 | 5.479 |
| 18 | `CN1CCCC(CCC(=O)N2CCc3c(nc(CC4CC4)[nH]c3=O)C2)C1` (configuration not stated) | -5.357 | 10.45 | -22.29 | 2.138 | 15.93 |
| 19 | `Cn1ncnc1NCc1ccccc1Cl` | 2.488 | 13.89 | -11.33 | -2.384 | 8.434 |
| 20 | `CCOCC1CN(C(=O)CC2=CCCCC2)Cc2nnn(C)c21` (configuration not stated) | 2.062 | 34.78 | -18.37 | 2.463 | 8 |
| 21 | `Cc1nc(C)c(C(=O)NCC(c2ccccc2Cl)N2CCOCC2)s1` (configuration not stated) | 8.867 | 26.85 | -0.6321 | -2.564 | 15.07 |
| 22 | `CS(=O)(=O)N1CCCC(Cc2ccnc3ccncc23)CC1` (configuration not stated) | 37.23 | 5.658 | 2.7 | 3.676 | 80.21 |
| 23 | `Fc1ccc(CN2CCC3(CC2)CCN(Cc2nccs2)CC3)cc1.O=C(O)C(F)(F)F.O=C(O)C(F)(F)F` | - | 24.07 | -2.809 | - | - |
| 24 | `CCc1ncc(C(=O)N2CCCOC(Cn3cccn3)C2)cn1` (configuration not stated) | 3.797 | 6.791 | 0.4528 | 1.923 | 8.333 |
| 25 | `Cc1cc(C)cc(C2(C(=O)NC(C)Cn3ccnc3)CC2)c1` (configuration not stated) | 2.256 | 27.1 | - | -1.028 | -14.61 |
| 26 | `Cc1nnc(N2CCCC(CS(N)(=O)=O)C2)c(C#N)c1C` (configuration not stated) | 1.681 | -12.52 | 1.737 | -3.24 | 1.653 |
| 27 | `Cc1cc(CC(C)NC(=O)c2cccc(CC3CCNCC3)c2)[nH]n1` (configuration not stated) | 5.202 | 4.247 | -2.9 | -15.29 | 14.67 |
| 28 | `CN(Cc1ccco1)C(=O)C1CSCN1C(=O)c1cccs1` (configuration not stated) | 8 | -1.041 | 5.41 | -0.4779 | 9.615 |
| 29 | `[H][C@@]12CC(=O)N(Cc3csc(C)n3)[C@@]1([H])CCN2S(=O)(=O)C1CC1` | - | -14.47 | -19 | - | - |
| 30 | `OC(CN1CCN(Cc2nnc(C3CC3)o2)CC1)c1ccccc1` (configuration not stated) | 4.511 | 12.6 | - | 6.17 | -39.33 |
| 31 | `Cc1cc(C)n(CC2CCCCN2Cc2cscn2)n1` (configuration not stated) | 7.925 | 1.391 | -4.194 | 8.974 | 16 |
| 32 | `Cn1cnc2c1C(COCC1CCOCC1)CN(C(=O)c1ccoc1)C2` (configuration not stated) | -1.639 | -1.924 | -3.605 | 13.73 | 9.489 |
| 33 | `CCN1C(=O)CC[C@]12CC[C@@H](NC(=O)c1ccncc1F)CC2.O=C(O)C(F)(F)F` | - | 11.47 | -7.359 | - | - |
| 34 | `CCOc1cc(Cl)ccc1CNC(=O)N1CCCC(CO)C1` (configuration not stated) | 0 | 17.68 | -2.924 | 0.3968 | 5.556 |
| 35 | `CNC(=O)Cc1noc(-c2cc3c(s2)CCCC3)n1` | 3.922 | -3.192 | 5.643 | 2.233 | 15 |
| 36 | `O=c1c2cnc(N3CCCC3)nc2ccn1-c1cccc(F)c1` | 0 | -21.28 | -2.742 | -0.2141 | 13.33 |
| 37 | `O=C(CCn1cncn1)N1C[C@H]2CC[C@@H]1CN(Cc1cccnc1)C2` | 2.326 | - | - | 3.004 | 13.11 |
| 38 | `COC1CCN(C(=O)Cc2csc(-c3ncccn3)n2)CC1` | 1.901 | -0.7086 | -1.411 | 3.989 | 21.6 |
| 39 | `CN([C@@H]1CC[C@@H](N2CCCC2)[C@@H]1O)S(=O)(=O)c1ccccc1` | 6.215 | 9.169 | 8.816 | -9.685 | 8.392 |
| 40 | `O=C(NC1CCCC1)c1cc2c(s1)CCN2C(=O)c1ccccc1` | 2.857 | 5.052 | 3.299 | -0.6165 | 4.167 |
| 41 | `CSc1nc(N)c2c(n1)N=C1COC(O)=C1C2c1cccc(Cl)c1` (configuration not stated) | 8.482 | -0.4721 | -6.773 | 4.337 | 23.46 |
| 42 | `Cc1cc(CN(C)C(=O)C(c2cccnc2)N2CCOCC2)n[nH]1` (configuration not stated) | 3.448 | 6.185 | -18.26 | -6 | -15.38 |
| 43 | `COCCO[C@H]1CCN(c2ccc(C)nn2)[C@H]1Cc1cccnc1` | 6.145 | - | - | 3.03 | 19.23 |
| 44 | `[H][C@]12CC[C@](C(=O)N3CCC(Cn4cc(CO)nn4)CC3)(C1)C(=C)C2(C)C` | - | -11.33 | -5.811 | - | - |
| 45 | `O=C(O)C(F)(F)F.[H][C@@]12CC(=O)N(c3ccsc3)[C@@]1([H])CCN2Cc1ccco1` | - | -9.46 | 1.199 | - | - |
| 46 | `Cc1ncsc1C(=O)NC1CCN(Cc2cccc3c2OCCO3)CC1` | 2.254 | 27.73 | -6.325 | 3.69 | 9.565 |
| 47 | `Cc1nn(C)c(N(C)C)c1CNCC(O)COc1ccccc1.Cl` (configuration not stated) | - | 30.18 | -32.4 | - | - |
| 48 | `COc1c(C)cnc(CSc2nnc(C)s2)c1C` | 2.075 | 10.88 | -2.203 | 9.375 | 10.68 |
| 49 | `COc1ncc(CN(C)C(C)c2cccnc2)cn1` (configuration not stated) | 3.139 | 3.525 | 17.56 | -0.5076 | 15.29 |
| 50 | `Cc1cccc(CN2CCOC(C)(C(=O)N3CCOCC3)C2)n1` (configuration not stated) | 3.333 | -11.7 & 12.73 | 15.9 | -4.358 | -2.062 |
| 51 | `CN1CCC(N(C)C[C@H]2CC[C@@H](Cc3ccc4c(cnn4C)c3)O2)CC1` | 4.433 | 38.58 | -0.2378 | -17.42 | -1.316 |
| 52 | `Cc1cccc(CN2CCC3(CCCN(C(=O)NC(C)C)C3)C2=O)n1` (configuration not stated) | 5.376 | - | - | 3.579 | 13.27 |
| 53 | `COc1ccccc1CNc1cnn(CC(F)F)c1` | 4.624 | 18.92 | -15.95 | -5.276 | 20.62 |
| 54 | `CCN1CCCC(NC(=O)c2ccc(C)[nH]c2=O)C1` (configuration not stated) | 8.04 | 31.9 | -0.764 | 3.236 | 10.59 |
| 55 | `CC(C)CCNC(=O)C1CCCN1C(=O)Nc1cccc(F)c1` (configuration not stated) | 2.632 | 24.11 | 4.457 | -6.061 | 5.674 |

4 of the entries, repeated:

Compound	A	B	C	D	E
COC1CCCN(Cc2cc(O)c3cc(C)cc(C)c3n2)C1 (configuration not stated)	1.02	3.372	-7.571	5.952	11.11
Cc1cc(C)cc(C2(C(=O)NC(C)Cn3ccnc3)CC2)c1 (configuration not stated)	2.256	27.1	-	-1.028	-14.61
CCN1CCN(c2ncc3c(n2)CN(c2cnn(CC)c2)C3=O)CC1	4.348	-100.9	5.32	7.621	15.52
CCS(=O)(=O)c1ccc(N2CCC(NC(=O)c3ccccn3)CC2)cc1	4.082	3.481	3.303	-3.121	-39.67